Where “and” joins values, the source holds several entries; their conditions need not be identical. Equal entries are not always repeated.
system: HeLa cells; assay: Fluorescence microscopy of Cy5-conjugated compounds; format: cell-based, human; conditions: individual technical replicates
Protocol: Cells were seeded into 96-well, black, clear-bottom, TC-treated plates, in DMEM supplemented with 10% FBS 24 h prior at a density where wells were ~80% confluent at the time of the experiment. Medium was removed and cells were then stained with 50 µL mixture containing Cy5-labeled compound (6 µM) in Kreb’s ringer solution HEPES buffered pH 7.2 (KRB), for 1 h at 37 °C. Then, 50 µL Hoechst 33342 (8 µM) and Mitotracker Green FM (0.1 µM) in KRB was added directly to wells containing cells and incubated for 15 min at 37 °C. Medium was removed and cells were washed twice with 100 µL KRB. Cells were then kept adherent to the wells in 100 µL KRB for imaging. Fluorescence microscopy was conducted on an Opera Phenix Plus High-Content Screening System, using Alexa 488, Alexa 647, and Hoescht 33342 channels. Images were analyzed using Harmony v.4.9.

Structure (SMILES)	Mitotracker Green and Cy5 Spots % Overlap (8g)
CC(=O)NCCNC(=O)CCCCCN1\C(=C/C=C/C=C/C2=[N+](C)c3ccccc3C2(C)C)C(C)(C)c2ccccc21 [Cy5-enAc, reference compound]	73.41% and 77.45% and 72.71%
C[N+]1=C(C=CC=CC=C2N(CCCCCC(=O)NCCNC(=O)C3CCNC(=O)C=CC(=O)N4CCCC(Cc5ccccc5)(C4)C(=O)NC(Cc4ccc(-c5ccc(CC(C(=O)O)C(=O)O)cc5)cc4)C(=O)NCc4ccccc4CC(=O)N3)c3ccccc3C2(C)C)C(C)(C)c2ccccc21 (stereo not shown) [*B52-Cy5]	17.82% and 18.68% and 22.81%
CCOC(=O)C(Cc1ccc(-c2ccc(CC3NC(=O)C4(Cc5ccccc5)CCCN(C4)C(=O)C=CC(=O)NCCC(C(=O)NCCNC(=O)CCCCCN4C(=CC=CC=CC5=[N+](C)c6ccccc6C5(C)C)C(C)(C)c5ccccc54)NC(=O)Cc4ccccc4CNC3=O)cc2)cc1)C(=O)OCC (stereo not shown) [Compound B52-Et-Cy5]	85.8% and 85.56% and 86.46%
C[N+]1=C(C=CC=CC=C2N(CCCCCC(=O)NCCNC(=O)C3CCNC(=O)C=CC(=O)N4CCCC(Cc5ccccc5)(C4)C(=O)NC(Cc4ccc(-c5ccc(C(CC(=O)O)CC(=O)O)cc5)cc4)C(=O)NCc4ccccc4CC(=O)N3)c3ccccc3C2(C)C)C(C)(C)c2ccccc21 (stereo not shown) [Compound B53-Cy5]	21.44% and 28.05% and 25.24%
CCOC(=O)CC(CC(=O)OCC)c1ccc(-c2ccc(CC3NC(=O)C4(Cc5ccccc5)CCCN(C4)C(=O)C=CC(=O)NCCC(C(=O)NCCNC(=O)CCCCCN4C(=CC=CC=CC5=[N+](C)c6ccccc6C5(C)C)C(C)(C)c5ccccc54)NC(=O)Cc4ccccc4CNC3=O)cc2)cc1 (stereo not shown) [Compound B53-Et-Cy5]	86.25% and 86.5% and 84.76%
C[N+]1=C(C=CC=CC=C2N(CCCCCC(=O)NCCNC(=O)C3CCNC(=O)C=CC(=O)N4CCCC(Cc5ccccc5)(C4)C(=O)NC(Cc4ccc(-c5ccc(CC(C(=O)O)C(=O)O)cc5)cc4)C(=O)NCc4ccccc4CC(=O)N3)c3ccccc3C2(C)C)C(C)(C)c2ccccc21 (stereo not shown) [Compound B52-Cy5]	40.87% and 40.29% and 39.94%
C[N+]1=C(C=CC=CC=C2N(CCCCCC(=O)NCCNC(=O)C3CCNC(=O)C=CC(=O)N4CCCC(Cc5ccccc5)(C4)C(=O)NC(Cc4ccc(-c5ccc(C(CC(=O)O)CC(=O)O)cc5)cc4)C(=O)NCc4ccccc4CC(=O)N3)c3ccccc3C2(C)C)C(C)(C)c2ccccc21 (stereo not shown) [*B53-Cy5]	22.73% and 23.26% and 27.77%
